# Results published in the supplement of paper PMC8728848.
# This is one part of the list.
# B1: BIp1-His (Cryptococcus neoformans) (protein)
# chain: MFTKIFVALFAATAVLSAPVESAEKRITHTGRATFYSPSVGIGACGWQNTDEELVVALNAPQYALNADHNCGQSVRITNEQNGNQEIAKVVDLCPGCNDGDLDMSPALFGALNNNDFDQGVFPISWNFLPRDDTSSSN
# How the values were obtained:
# Experiment in all cases: glycan array binding signal (z-score within array); higher = stronger binding
# Details in all cases: glycan notation: IUPAC condensed, linker removed
# [1] = target: Gal(b1-4)GlcNAc(b1-3)Gal(b1-4)GlcNAc(b1-3)Gal(b1-4)GlcNAc(b1-3)Gal(b1-4)GlcNAc(b1-2)Man(a1-3)[Gal(b1-4)GlcNAc(b1-3)Gal(b1-4)GlcNAc(b1-3)Gal(b1-4)GlcNAc(b1-3)Gal(b1-4)GlcNAc(b1-2)Man(a1-6)]Man(b1-4)GlcNAc(b1-4)GlcNAc
# Outline: (§1)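 Columns mapping to the same glycan were averaged after glycan names were converted to IUPAC-condensed notation. The data come from 3228 arrays in the Consortium for Functional Glycomics database, limited to those with an available protein sequence. Binding is reported as a within-array Z-score averaged across arrays of one protein sequence and across linkers.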
# [2] = target: Gal(b1-4)GlcNAc(b1-3)Gal(b1-4)GlcNAc(b1-3)Gal(b1-4)GlcNAc(b1-3)Gal(b1-4)GlcNAc(b1-2)Man(a1-3)[Gal(b1-4)GlcNAc(b1-3)Gal(b1-4)GlcNAc(b1-3)Gal(b1-4)GlcNAc(b1-3)Gal(b1-4)GlcNAc(b1-2)Man(a1-6)]Man(b1-4)GlcNAc(b1-4)[Fuc(a1-6)]GlcNAc
# Outline: as §1
# [3] = target: Gal(b1-4)GlcNAc(b1-3)Gal(b1-4)GlcNAc(b1-3)Gal(b1-4)GlcNAc(b1-3)Gal(b1-4)GlcNAc(b1-2)[Gal(b1-4)GlcNAc(b1-3)Gal(b1-4)GlcNAc(b1-3)Gal(b1-4)GlcNAc(b1-3)Gal(b1-4)GlcNAc(b1-6)]Man(a1-6)[Gal(b1-4)GlcNAc(b1-3)Gal(b1-4)GlcNAc(b1-3)Gal(b1-4)GlcNAc(b1-3)Gal(b1-4)GlcNAc(b1-2)Man(a1-3)]Man(b1-4)GlcNAc(b1-4)[Fuc(a1-6)]GlcNAc
# Outline: as §1
# [4] = target: Gal(b1-4)GlcNAc(b1-3)Gal(b1-4)GlcNAc(b1-3)Gal(b1-4)GlcNAc(b1-3)Gal(b1-4)GlcNAc(b1-3)Gal(b1-4)GlcNAc(b1-2)Man(a1-3)[Gal(b1-4)GlcNAc(b1-3)Gal(b1-4)GlcNAc(b1-3)Gal(b1-4)GlcNAc(b1-3)Gal(b1-4)GlcNAc(b1-3)Gal(b1-4)GlcNAc(b1-2)Man(a1-6)]Man(b1-4)GlcNAc(b1-4)GlcNAc
# Outline: as §1
# [5] = target: Gal(b1-4)GlcNAc(b1-3)Gal(b1-4)GlcNAc(b1-3)Gal(b1-4)GlcNAc(b1-3)Gal(b1-4)GlcNAc(b1-3)Gal(b1-4)GlcNAc(b1-2)Man(a1-3)[Gal(b1-4)GlcNAc(b1-3)Gal(b1-4)GlcNAc(b1-3)Gal(b1-4)GlcNAc(b1-3)Gal(b1-4)GlcNAc(b1-3)Gal(b1-4)GlcNAc(b1-2)Man(a1-6)]Man(b1-4)GlcNAc(b1-4)[Fuc(a1-6)]GlcNAc
# Outline: as §1
# [6] = target: Gal(b1-4)GlcNAc(b1-3)Gal(b1-4)GlcNAc(b1-3)Gal(b1-4)GlcNAc(b1-3)Gal(b1-4)GlcNAc(b1-3)Gal(b1-4)GlcNAc(b1-2)[Gal(b1-4)GlcNAc(b1-3)Gal(b1-4)GlcNAc(b1-3)Gal(b1-4)GlcNAc(b1-3)Gal(b1-4)GlcNAc(b1-3)Gal(b1-4)GlcNAc(b1-6)]Man(a1-6)[Gal(b1-4)GlcNAc(b1-3)Gal(b1-4)GlcNAc(b1-3)Gal(b1-4)GlcNAc(b1-3)Gal(b1-4)GlcNAc(b1-3)Gal(b1-4)GlcNAc(b1-2)Man(a1-3)]Man(b1-4)GlcNAc(b1-4)[Fuc(a1-6)]GlcNAc
# Outline: as §1
# [7] = target: Gal(b1-4)GlcNAc(b1-3)Gal(b1-4)GlcNAc(b1-3)Gal(b1-4)GlcNAc(b1-3)Gal(b1-4)GlcNAc(b1-3)Gal(b1-4)GlcNAc(b1-3)Gal(b1-4)GlcNAc(b1-2)Man(a1-3)[Gal(b1-4)GlcNAc(b1-3)Gal(b1-4)GlcNAc(b1-3)Gal(b1-4)GlcNAc(b1-3)Gal(b1-4)GlcNAc(b1-3)Gal(b1-4)GlcNAc(b1-3)Gal(b1-4)GlcNAc(b1-2)Man(a1-6)]Man(b1-4)GlcNAc(b1-4)GlcNAc
# Outline: as §1
# [8] = target: Gal(b1-4)GlcNAc(b1-3)Gal(b1-4)GlcNAc(b1-3)GalNAc
# Outline: as §1
# [9] = target: Gal(b1-4)GlcNAc(b1-3)Gal(b1-4)GlcNAc(b1-3)[Gal(b1-4)GlcNAc(b1-3)Gal(b1-4)GlcNAc(b1-6)]GalNAc
# Outline: as §1
# [10] = target: Gal(b1-4)GlcNAc(b1-3)Gal(b1-4)GlcNAc(b1-6)[Gal(b1-3)]GalNAc
# Outline: as §1
# [11] = target: Gal(b1-4)GlcNAc(b1-3)Gal(b1-4)[Fuc(a1-3)]GlcNAc(b1-3)Gal(b1-4)[Fuc(a1-3)]GlcNAc
# Outline: as §1
# [12] = target: Gal(b1-4)GlcNAc(b1-3)GalNAc
# Outline: as §1
# [13] = target: Gal(b1-4)GlcNAc(b1-3)[Fuc(a1-3)GlcNAc(b1-6)]Gal(b1-4)Glc
# Outline: as §1
# [14] = target: Gal(b1-4)GlcNAc(b1-3)[Gal(b1-4)GlcNAc(b1-6)]Gal(b1-4)GlcNAc
# Outline: as §1
# [15] = target: Gal(b1-4)GlcNAc(b1-3)[GlcNAc(b1-6)]Gal(b1-4)GlcNAc
# Outline: as §1
# [16] = target: Gal(b1-4)GlcNAc(b1-6)Gal(b1-4)GlcNAc
# Outline: as §1
# [17] = target: Gal(b1-4)GlcNAc(b1-6)GalNAc
# Outline: as §1
# [18] = target: Gal(b1-4)GlcNAc(b1-6)[Gal(b1-3)]GalNAc
# Outline: as §1
# [19] = target: Gal(b1-4)GlcNAc(b1-6)[Gal(b1-4)GlcNAc(b1-3)]GalNAc
# Outline: as §1
# Gal(b1-4)GlcNAc6P = target: Gal(b1-4)GlcNAc6P
# Outline: as §1
# Gal(b1-6)Gal = target: Gal(b1-6)Gal
# Outline: as §1
# Gal3S(b1-3)GalNAc = target: Gal3S(b1-3)GalNAc
# Outline: as §1
# Gal3S(b1-3)GlcNAc = target: Gal3S(b1-3)GlcNAc
# Outline: as §1
binder,measurement,setting,value
B1,glycan array binding signal (z-score),[1],0.684
same,glycan array binding signal (z-score),[2],2.08
same,glycan array binding signal (z-score),[3],0.595
same,glycan array binding signal (z-score),[4],0.681
same,glycan array binding signal (z-score),[5],0.357
same,glycan array binding signal (z-score),[6],1.15
same,glycan array binding signal (z-score),[7],0.308
same,glycan array binding signal (z-score),[8],0.437
same,glycan array binding signal (z-score),[9],1.63
same,glycan array binding signal (z-score),[10],0.351
same,glycan array binding signal (z-score),[11],-0.074
same,glycan array binding signal (z-score),[12],-0.463
same,glycan array binding signal (z-score),[13],1.66
same,glycan array binding signal (z-score),[14],-0.131
same,glycan array binding signal (z-score),[15],-0.866
same,glycan array binding signal (z-score),[16],-0.089
same,glycan array binding signal (z-score),[17],0.303
same,glycan array binding signal (z-score),[18],-0.481
same,glycan array binding signal (z-score),[19],0.499
same,glycan array binding signal (z-score),Gal(b1-4)GlcNAc6P,0.46
same,glycan array binding signal (z-score),Gal(b1-6)Gal,-0.497
same,glycan array binding signal (z-score),Gal3S(b1-3)GalNAc,0.365
same,glycan array binding signal (z-score),Gal3S(b1-3)GlcNAc,-0.073

# Exported tab-delimited: entries from further up.
binder	measurement	setting	value
B1	glycan array binding signal (z-score)	[7]	0.308
same	glycan array binding signal (z-score)	[13]	1.66
